Laboratory results published in US20140155330A1, “Compositions And Methods For Modulating Apoptosis” (Yeda Research and Development Co. Ltd., priority 2011, published 2014).
No constants are given. Whether binding was seen depends on the method and setting. For some of these results: In cells and extracts the contact can be indirect. Some results given as binding are weak or reduced against the parent protein; the word gives no strength. Blank lines part the entries; values can stand above or below the substance they belong to.

Sequences of proteins named here, by UniProt entry; tags and fusion partners are left off. A change or cut given only in a name is not applied to a line headed by its entry.
UniProt P10415: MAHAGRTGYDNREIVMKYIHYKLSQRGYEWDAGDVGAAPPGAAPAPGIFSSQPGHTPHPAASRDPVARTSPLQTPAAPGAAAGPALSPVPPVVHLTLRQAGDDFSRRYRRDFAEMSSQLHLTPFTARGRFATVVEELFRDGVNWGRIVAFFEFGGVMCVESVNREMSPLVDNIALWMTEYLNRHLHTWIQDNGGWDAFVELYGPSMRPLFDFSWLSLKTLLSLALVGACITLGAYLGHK
UniProt Q07820: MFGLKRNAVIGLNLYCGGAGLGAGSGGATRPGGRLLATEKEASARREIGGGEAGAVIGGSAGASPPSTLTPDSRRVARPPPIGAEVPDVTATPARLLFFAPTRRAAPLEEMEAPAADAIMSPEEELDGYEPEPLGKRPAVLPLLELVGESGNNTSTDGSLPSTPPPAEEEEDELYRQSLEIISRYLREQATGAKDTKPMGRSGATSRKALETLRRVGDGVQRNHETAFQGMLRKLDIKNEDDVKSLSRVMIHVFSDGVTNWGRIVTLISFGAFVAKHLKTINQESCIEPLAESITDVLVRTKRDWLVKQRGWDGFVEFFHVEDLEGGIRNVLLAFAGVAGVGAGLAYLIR
UniProt Q16539: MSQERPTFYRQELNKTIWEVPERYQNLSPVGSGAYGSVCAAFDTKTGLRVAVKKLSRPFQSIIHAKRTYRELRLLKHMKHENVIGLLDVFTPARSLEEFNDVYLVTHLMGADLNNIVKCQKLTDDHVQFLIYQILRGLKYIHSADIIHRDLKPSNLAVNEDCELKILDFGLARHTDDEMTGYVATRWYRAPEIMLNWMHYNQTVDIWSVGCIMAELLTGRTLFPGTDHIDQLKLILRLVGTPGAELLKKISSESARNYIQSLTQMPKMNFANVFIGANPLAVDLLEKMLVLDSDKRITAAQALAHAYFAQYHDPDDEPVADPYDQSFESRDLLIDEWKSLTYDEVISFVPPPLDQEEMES
UniProt O94817: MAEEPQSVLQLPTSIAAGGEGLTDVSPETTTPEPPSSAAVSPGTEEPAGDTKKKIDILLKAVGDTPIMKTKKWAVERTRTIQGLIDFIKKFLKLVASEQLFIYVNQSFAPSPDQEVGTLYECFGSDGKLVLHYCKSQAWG

Columns and labels:
Bcl-2 (wild type) [1] = target: Bcl-2 (wild type) (UniProt P10415); test: co-immunoprecipitation with endogenous protein, HEK293 cells
[2] = target: Mcl-1 (wild type) (Homo sapiens (Human)) (UniProt Q07820); test: as above
[3] = target: HA-tagged p38 (human p38 alpha) (human) (UniProt Q16539); test: co-immunoprecipitation of overexpressed proteins, HEK293 cells
[4] = target: HA-tagged p38 (human p38 alpha) (human) (UniProt Q16539); test: co-immunoprecipitation, FIG. 13 legend
[5] = target: Mcl-1 (wild type) (Homo sapiens (Human)) (UniProt Q07820); test: Flag-Atg12 immunoprecipitates from HEK293 cells incubated with ABT-737, western blot
Bcl-2 (wild type) [6] = target: Bcl-2 (wild type) (UniProt P10415); test: co-immunoprecipitation, FIG. 5B legend
[7] = target: Mcl-1 (wild type) (Homo sapiens (Human)) (UniProt Q07820); test: co-immunoprecipitation, FIG. 5B legend
Bcl-2 (wild type) [8] = target: Bcl-2 (wild type) (UniProt P10415); test: co-immunoprecipitation, FIG. 5E legend
Bcl-2 (wild type) [9] = target: Bcl-2 (wild type) (UniProt P10415); test: co-immunoprecipitation, FIG. 5C legend
[10] = target: Mcl-1 (wild type) (Homo sapiens (Human)) (UniProt Q07820); test: co-immunoprecipitation, FIG. 5C legend
Bcl-2 (wild type) [11] = target: Bcl-2 (wild type) (UniProt P10415); test: co-immunoprecipitation on anti-FLAG beads, transiently transfected HEK293 cells, western blot
Bcl-2 (wild type) [12] = target: Bcl-2 (wild type) (UniProt P10415); test: co-immunoprecipitation, HeLa cells treated with STS
[13] = target: Mcl-1 (wild type) (Homo sapiens (Human)) (UniProt Q07820); test: co-immunoprecipitation, co-transfected HEK293 cells
Bcl-2 (wild type) [14] = target: Bcl-2 (wild type) (UniProt P10415); test: as above
[15] = target: Mcl-1 (wild type) (Homo sapiens (Human)) (UniProt Q07820); test: endogenous co-immunoprecipitation with anti-Atg12 monoclonal antibody
Bcl-2 (wild type) [16] = target: Bcl-2 (wild type) (UniProt P10415); test: co-immunoprecipitation, transiently transfected HEK293 cells
Bcl-2 (wild type) [17] = target: Bcl-2 (wild type) (UniProt P10415); test: co-immunoprecipitation, FIG. 7B legend
[18] = target: Mcl-1 (wild type) (Homo sapiens (Human)) (UniProt Q07820); test: endogenous co-immunoprecipitation, FIG. 5D legend
[19] = target: Mcl-1 (wild type) (Homo sapiens (Human)) (UniProt Q07820); test: co-immunoprecipitation

binding (Bcl-2 (wild type) [1]): binds | binding [2]: binds | binding [3]: binds | binding [4]: binds | binding [5]: binds | binding (Bcl-2 (wild type) [6]): binds | binding [7]: binds | binding (Bcl-2 (wild type) [8]): binds | binding (Bcl-2 (wild type) [9]): binds | binding [10]: binds | binding (Bcl-2 (wild type) [11]): binds | binding (Bcl-2 (wild type) [12]): binds | binding [13]: binds
Substance: Flag-tagged human Atg12 (wild type) (from UniProt O94817 1-140)

binding (Bcl-2 (wild type) [14]): binds
Substance: Flag-tagged Atg12 D64A (from UniProt O94817 1-140)

binding [15]: binds | binding (Bcl-2 (wild type) [16]): binds | binding (Bcl-2 (wild type) [17]): binds | binding [18]: binds
Substance: Atg12 (human; untagged, endogenous, or tag not stated) (from UniProt O94817 1-140)

binding (Bcl-2 (wild type) [16]): binds | binding (Bcl-2 (wild type) [17]): binds
Substance: Atg12ΔG140 (from UniProt O94817 1-139)

binding [19]: binds
Substance: Atg12 T65A (from UniProt O94817 1-140)

binding [19]: binds
Substance: Flag-tagged Atg12 F101A (from UniProt O94817 1-140)
